PubChem BioAssay AID686937 – Drosophila RNAi Screening Center, 2013
Purpose: 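Knock-downs that reduce output of a secreted reporter enzyme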 (primary screen). Cells: Drosophila S2 cells expressing secreted horseradish peroxidase. Reagent: long dsRNA against Drosophila genes. Timing: about 5.5 days (5 days dsRNA, then 12 h reporter induction). Challenge: reporter expression induced after 5 days of dsRNA, read 12 h later; inducer not stated. Detection: 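Chemiluminescent measurement of peroxidase in the medium 12 h after reporter induction, following 5 days of dsRNA, given as a z-score per plate; higher means more secretion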. Reading the numbers: z-score: higher = more reporter secreted into medium.
In all, the deposit lists about 23,000 reagents; this is an unselected part of those that have a named target and a result. 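Reduced-secretion tags in replicate 1 do not always agree with the z-scores; no criterion for assigning the tags was given.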 A plus sign joins genes that one reagent is predicted to hit. Not all columns of the deposit are shown. Not given: the amount of reagent.

For Nepl18 [SID104194671], the entry reads z-score, replicate 1 = 0.27. For CG4815 [SID104195445] the deposit lists z-score, replicate 1 = 0.33. Against CG43219 [SID104191264], the entry reads z-score, replicate 1 = 0.24. CG42531 [SID104185110] gave z-score, replicate 1 = -0.4. For Cph [SID104197299] the deposit lists z-score, replicate 1 = 1.07. Cph [SID104198226] gave z-score, replicate 1 = 0.37.

Depletion of CG8534 [SID104196231] gave: z-score, replicate 1 = 0.24. mei-38 [SID104198356] showed z-score, replicate 1 = 0.11. With knock-down of Trs31 [SID104185767] the results were z-score, replicate 1 = -0.26. Depletion of CG32086 [SID104190378] came out at: z-score, replicate 1 = 0.38. Depletion of Pde6 [SID104196193] came out at: z-score, replicate 1 = 0.27. Pde6 [SID104196194] scored z-score, replicate 1 = 0.09.

Against Pde6 [SID104196195] the deposit lists z-score, replicate 1 = 0.22. Depletion of CG5861 [SID104182699] resulted in: z-score, replicate 1 = -0.1. For aurA [SID104196697], the entry reads z-score, replicate 1 = -1.36. For CG7300 [SID104182836] the deposit lists z-score, replicate 1 = 0.3. After knock-down of CG3309 [SID104198093], the screen gave z-score, replicate 1 = 0.49. After knock-down of CR31054 [SID104201687], the record shows z-score, replicate 1 = -0.02.

CG42579 [SID104200183] scored z-score, replicate 1 = 0.34. For mRpL17 [SID104188142], the entry reads z-score, replicate 1 = -0.11. CG4558 [SID104198161] gave z-score, replicate 1 = 0.31. Knock-down of CG8051 [SID104199869] resulted in: z-score, replicate 1 = 0.35. Against eIF2beta [SID104191133], the entry reads z-score, replicate 1 = -5.66; phenotype, replicate 1 = reduced secretion. After knock-down of CG42284 [SID104201664], the screen gave z-score, replicate 1 = 0.18.

CG42284 [SID104201837] showed z-score, replicate 1 = 0.22. Against Sprn [SID104189924], the values are z-score, replicate 1 = 0.08. For Qsox3 [SID104195888] the deposit lists z-score, replicate 1 = 0.11. For CG4563 [SID104184266], the values are z-score, replicate 1 = 0.24. Against Gug [SID104190971], the values are z-score, replicate 1 = -0.08. Ir7d [SID104197802] showed z-score, replicate 1 = 0.1.

Against Zip71B [SID104189478] the deposit lists z-score, replicate 1 = -0.17. amos [SID104183276] scored z-score, replicate 1 = 0.22. With knock-down of Idi [SID104195710], the screen gave z-score, replicate 1 = 0.26. Against Ogdh [SID104189646], the values are z-score, replicate 1 = 0.49. After knock-down of Ogdh [SID104189647], the screen gave z-score, replicate 1 = -0.37. Depletion of Pal1 [SID104185898] gave: z-score, replicate 1 = 0.5.

Depletion of CG4645 [SID104199699] came out at: z-score, replicate 1 = 0.47. Against CG14439 [SID104197723], the entry reads z-score, replicate 1 = 0.23. Mpv17 [SID104196990] scored z-score, replicate 1 = 0.25. For h-cup + Rbp [SID104194782], the values are z-score, replicate 1 = -0.19.
